Results as given in publication PMC3024417.
Read-outs that look alike come from different tables or passages of the source. These are yes or no findings as the source states them, for the method shown. Binding seen in cells or lysates may run through a third protein. A yes stands for co-enrichment or nearness to the bait. Other partners may have been found.

The chains behind the UniProt entries cited, without tags or fusion partners. Where a name states a change or a piece, a line headed by the entry shows the natural chain unless it says otherwise.
UniProt Q13439: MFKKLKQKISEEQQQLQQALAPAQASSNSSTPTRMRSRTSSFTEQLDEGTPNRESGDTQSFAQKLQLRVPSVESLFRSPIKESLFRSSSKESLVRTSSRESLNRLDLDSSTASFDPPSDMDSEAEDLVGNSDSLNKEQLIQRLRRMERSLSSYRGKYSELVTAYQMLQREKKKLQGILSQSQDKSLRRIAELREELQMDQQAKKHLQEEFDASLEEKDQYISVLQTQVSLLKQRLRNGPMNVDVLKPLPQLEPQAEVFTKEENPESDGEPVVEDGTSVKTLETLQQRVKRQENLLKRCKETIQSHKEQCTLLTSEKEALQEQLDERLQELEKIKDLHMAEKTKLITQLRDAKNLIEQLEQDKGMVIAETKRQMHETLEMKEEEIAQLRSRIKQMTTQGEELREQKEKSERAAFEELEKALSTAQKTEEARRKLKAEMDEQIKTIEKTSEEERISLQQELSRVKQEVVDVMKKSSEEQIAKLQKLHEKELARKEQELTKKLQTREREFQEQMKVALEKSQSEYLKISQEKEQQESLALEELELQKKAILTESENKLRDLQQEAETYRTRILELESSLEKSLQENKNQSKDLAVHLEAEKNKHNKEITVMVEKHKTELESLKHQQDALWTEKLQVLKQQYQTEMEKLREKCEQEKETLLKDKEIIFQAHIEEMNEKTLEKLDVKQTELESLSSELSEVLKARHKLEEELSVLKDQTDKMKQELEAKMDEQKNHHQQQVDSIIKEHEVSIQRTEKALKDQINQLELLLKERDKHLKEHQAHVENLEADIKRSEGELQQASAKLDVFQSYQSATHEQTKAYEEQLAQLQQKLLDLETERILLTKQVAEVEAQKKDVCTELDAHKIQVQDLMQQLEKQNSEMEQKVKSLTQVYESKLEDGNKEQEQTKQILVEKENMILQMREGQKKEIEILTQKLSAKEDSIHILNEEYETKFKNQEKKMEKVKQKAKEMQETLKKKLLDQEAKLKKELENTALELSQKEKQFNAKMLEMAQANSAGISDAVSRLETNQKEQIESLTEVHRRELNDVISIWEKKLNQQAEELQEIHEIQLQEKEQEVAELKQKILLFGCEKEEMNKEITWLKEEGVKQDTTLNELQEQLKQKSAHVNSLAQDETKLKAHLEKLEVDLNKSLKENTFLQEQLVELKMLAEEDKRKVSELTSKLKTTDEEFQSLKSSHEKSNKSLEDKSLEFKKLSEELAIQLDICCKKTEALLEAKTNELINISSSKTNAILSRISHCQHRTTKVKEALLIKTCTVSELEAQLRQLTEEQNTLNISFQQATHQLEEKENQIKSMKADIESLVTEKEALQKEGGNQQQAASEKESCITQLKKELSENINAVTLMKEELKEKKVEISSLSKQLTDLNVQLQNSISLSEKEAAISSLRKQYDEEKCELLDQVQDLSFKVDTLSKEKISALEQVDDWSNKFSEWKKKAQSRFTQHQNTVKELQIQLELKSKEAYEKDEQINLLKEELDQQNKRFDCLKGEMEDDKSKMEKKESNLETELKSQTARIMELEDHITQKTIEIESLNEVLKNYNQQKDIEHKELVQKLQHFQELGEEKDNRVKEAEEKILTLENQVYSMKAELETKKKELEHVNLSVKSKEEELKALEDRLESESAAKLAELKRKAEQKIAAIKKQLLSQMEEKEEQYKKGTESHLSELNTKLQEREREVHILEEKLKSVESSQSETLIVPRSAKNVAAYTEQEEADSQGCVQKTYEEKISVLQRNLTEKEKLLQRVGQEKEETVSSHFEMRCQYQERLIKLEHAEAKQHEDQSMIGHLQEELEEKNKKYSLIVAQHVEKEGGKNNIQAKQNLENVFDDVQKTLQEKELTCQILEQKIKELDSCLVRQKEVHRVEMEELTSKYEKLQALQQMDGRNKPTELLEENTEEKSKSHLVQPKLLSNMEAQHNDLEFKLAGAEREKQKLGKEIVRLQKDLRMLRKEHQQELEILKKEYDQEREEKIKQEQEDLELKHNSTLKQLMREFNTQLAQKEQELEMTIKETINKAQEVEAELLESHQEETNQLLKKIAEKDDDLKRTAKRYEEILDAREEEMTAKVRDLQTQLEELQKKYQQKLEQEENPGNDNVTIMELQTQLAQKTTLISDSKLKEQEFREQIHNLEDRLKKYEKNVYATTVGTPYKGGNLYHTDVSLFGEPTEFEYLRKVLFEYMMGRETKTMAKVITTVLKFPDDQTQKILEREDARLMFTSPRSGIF
UniProt P15311: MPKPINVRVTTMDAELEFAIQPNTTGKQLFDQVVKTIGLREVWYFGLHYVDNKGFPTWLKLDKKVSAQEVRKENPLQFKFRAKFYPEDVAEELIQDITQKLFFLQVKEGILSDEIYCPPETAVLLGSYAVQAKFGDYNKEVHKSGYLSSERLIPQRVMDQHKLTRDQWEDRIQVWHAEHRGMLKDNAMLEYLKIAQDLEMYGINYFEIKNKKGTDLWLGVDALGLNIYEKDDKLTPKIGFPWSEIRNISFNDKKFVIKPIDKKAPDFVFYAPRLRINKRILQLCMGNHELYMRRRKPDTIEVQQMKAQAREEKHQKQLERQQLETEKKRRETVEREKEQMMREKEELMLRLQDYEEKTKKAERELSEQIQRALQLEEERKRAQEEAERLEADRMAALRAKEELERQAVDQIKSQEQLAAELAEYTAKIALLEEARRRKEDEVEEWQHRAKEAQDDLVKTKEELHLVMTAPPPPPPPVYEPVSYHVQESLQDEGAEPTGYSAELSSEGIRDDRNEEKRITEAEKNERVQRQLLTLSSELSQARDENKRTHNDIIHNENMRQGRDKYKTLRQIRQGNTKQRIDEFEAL
UniProt O95831: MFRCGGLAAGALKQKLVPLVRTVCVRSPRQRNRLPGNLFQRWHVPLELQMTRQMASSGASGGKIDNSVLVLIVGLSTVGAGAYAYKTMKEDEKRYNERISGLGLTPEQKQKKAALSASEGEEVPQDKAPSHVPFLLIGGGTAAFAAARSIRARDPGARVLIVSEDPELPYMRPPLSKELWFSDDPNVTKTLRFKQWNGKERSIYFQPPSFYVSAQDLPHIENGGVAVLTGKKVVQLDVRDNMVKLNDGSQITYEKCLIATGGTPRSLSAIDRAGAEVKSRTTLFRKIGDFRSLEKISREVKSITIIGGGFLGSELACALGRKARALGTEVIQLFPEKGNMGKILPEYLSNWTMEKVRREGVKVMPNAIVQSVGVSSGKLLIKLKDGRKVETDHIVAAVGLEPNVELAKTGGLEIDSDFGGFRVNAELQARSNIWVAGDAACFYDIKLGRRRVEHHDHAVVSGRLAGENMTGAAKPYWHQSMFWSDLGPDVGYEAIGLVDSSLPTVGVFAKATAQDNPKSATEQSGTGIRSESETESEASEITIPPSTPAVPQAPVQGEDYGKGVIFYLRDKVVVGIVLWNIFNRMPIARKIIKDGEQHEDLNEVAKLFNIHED

B1: Plakoglobin (protein, UniProt P14923 1-745)
chain: MEVMNLMEQPIKVTEWQQTYTYDSGIHSGANTCVPSVSSKGIMEEDEACGRQYTLKKTTTYTQGVPPSQGDLEYQMSTTARAKRVREAMCPGVSGEDSSLLLATQVEGQATNLQRLAEPSQLLKSAIVHLINYQDDAELATRALPELTKLLNDEDPVVVTKAAMIVNQLSKKEASRRALMGSPQLVAAVVRTMQNTSDLDTARCTTSILHNLSHHREGLLAIFKSGGIPALVRMLSSPVESVLFYAITTLHNLLLYQEGAKMAVRLADGLQKMVPLLNKNNPKFLAITTDCLQLLAYGNQESKLIILANGGPQALVQIMRNYSYEKLLWTTSRVLKVLSVCPSNKPAIVEAGGMQALGKHLTSNSPRLVQNCLWTLRNLSDVATKQEGLESVLKILVNQLSVDDVNVLTCATGTLSNLTCNNSKNKTLVTQNSGVEALIHAILRAGDKDDITEPAVCALRHLTSRHPEAEMAQNSVRLNYGIPAIVKLLNQPNQWPLVKATIGLIRNLALCPANHAPLQEAAVIPRLVQLLVKAHQDAQRHVAAGTQQPYTDGVRMEEIVEGCTGALHILARDPMNRMEIFRLNTIPLFVQLLYSSVENIQRVAAGVLCELAQDKEAADAIDAEGASAPLMELLHSRNEGTATYAAAVLFRISEDKNPDYRKRVSVELTNSLFKHDPAAWEAAQSMIPINEPYGDDMDATYRPMYSSDVPLDPLEMHMDMDGDYPIDTYSDGLRPPYPTADHMLA

Key:
[1] = target: T1, p120-catenin (human (endogenous in A431)) (UniProt O60716); assay: cross-linking + affinity purification with mass spectrometry; ReCLIP: A431 cells crosslinked with 0.5 mM DSP, DTME or both, RIPA lysis; p120 captured on mAb 15D2 Dynabeads; DTT eluate analysed by LC-MS/MS; control mAb 8D11 beads
T1 sequence: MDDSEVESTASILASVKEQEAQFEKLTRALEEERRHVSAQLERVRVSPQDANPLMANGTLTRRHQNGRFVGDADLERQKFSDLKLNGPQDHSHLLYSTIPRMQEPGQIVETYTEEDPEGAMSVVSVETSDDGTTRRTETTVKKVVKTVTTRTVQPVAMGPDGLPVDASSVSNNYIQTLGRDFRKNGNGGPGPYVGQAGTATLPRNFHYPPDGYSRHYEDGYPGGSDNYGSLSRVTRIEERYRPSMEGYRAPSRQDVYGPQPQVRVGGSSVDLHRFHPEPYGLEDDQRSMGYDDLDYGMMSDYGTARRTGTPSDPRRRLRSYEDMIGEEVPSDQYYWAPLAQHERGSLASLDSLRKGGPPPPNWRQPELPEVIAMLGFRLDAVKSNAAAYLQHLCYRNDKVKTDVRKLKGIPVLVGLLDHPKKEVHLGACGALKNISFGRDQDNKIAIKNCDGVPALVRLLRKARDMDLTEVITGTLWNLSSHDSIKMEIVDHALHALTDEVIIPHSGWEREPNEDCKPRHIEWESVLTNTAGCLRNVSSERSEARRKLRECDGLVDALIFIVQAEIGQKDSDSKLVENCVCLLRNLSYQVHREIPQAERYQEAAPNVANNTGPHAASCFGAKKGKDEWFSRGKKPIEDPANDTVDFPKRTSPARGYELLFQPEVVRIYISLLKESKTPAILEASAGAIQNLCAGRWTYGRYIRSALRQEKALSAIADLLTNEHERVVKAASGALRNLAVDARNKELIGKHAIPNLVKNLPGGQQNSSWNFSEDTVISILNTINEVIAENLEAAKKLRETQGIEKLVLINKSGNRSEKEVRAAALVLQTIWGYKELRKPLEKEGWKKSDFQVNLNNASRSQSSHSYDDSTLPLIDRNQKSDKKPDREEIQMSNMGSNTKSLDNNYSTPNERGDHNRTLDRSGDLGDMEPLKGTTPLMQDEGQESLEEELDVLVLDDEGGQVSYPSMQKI

[2] = target: T1, p120-catenin (human (endogenous in A431)); assay: as above; remark: listed apart in the source

Row | binding [1] | binding [2] | Molecule
1 | binds |  | GOLGA4 (from UniProt Q13439 1-2230)
2 | binds |  | Villin-2/Ezrin (from UniProt P15311 1-586)
3 | binds |  | E-cadherin (human (endogenous in A431))
4 | binds |  | AIFM1 (from UniProt O95831)
5 |  | binds | B1
